# Values joined by “and” are separate entries in the source; they are usually repeats but may differ in a detail not shown here. Equal entries are not always repeated. At least one read-out could not be matched to a standard name with certainty.
# Assay: Chick growth study
# Assay type: in vivo, broiler chicks
# Settings: 50 ppm in feed, days 3-17
# Method: 512 Day old broiler chicks, selected for weight, health and sex, are housed in an environmentally controlled room with temperature at 37.7° and humidity at 40%. Chicks are fed ad libitum. Water is offered ad libitum. A corn or, preferably, rye basal ration is fed during the acclimation period (days 1 and 2), then, mixed with the compound under test or used as a control on days 3-17. Either 8 or 16 chicks are used for each test or control group.
Structure (SMILES),Feed Gain (3-17 day),Weight (17 day)
CC(=NNC(=S)N1CC2CCC(CC2)C1)c1ccccn1 [drawing 8],84.4 % of Control and 83.3 % of Control,115.3 % of Control and 109.1 % of Control
COC(=O)NN=Cc1ccccn1 [drawing 12],99.2 % of Control and 97.9 % of Control,103.4 % of Control and 103.0 % of Control
COC(=O)NN=C(C)c1ccccn1 [drawing 13],96.9 % of Control and 99.8 % of Control,105.8 % of Control and 102.6 % of Control

# Source: patent publication US4668672A, “Feed compositions containing pyridylalkylhydrazides” (SmithKline Beckman Corporation, priority 1985, dated 1987)
